Measurements as given in PubChem BioAssay AID445 (National Center for Advancing Translational Sciences (NCATS), 2006).
Several values for one entry are separate records, joined by “and”; a condition that tells them apart may be missing. Identical values can stand only once. Some of the results follow. Shown are side measurements of this screen, not its main read-out; they come without a call. Most of these compounds were active or inconclusive in the main read-out, so they are no random draw. Words in brackets tell the shape of the fitted curve; partial curves, single points and poor fits give uncertain potencies.

Assay: IkB Signaling
Conditions: ABC-DLBCL IkBa-CBG/CBR dual luciferase ratio (green luciferase fused to IkBa over red control in OCI-Ly3 lymphoma cells), 4 h
How it was run: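 Luminescence ratio of IκBα-fused green versus native red beetle luciferase in OCI-Ly3 cells, 4 h post-doxycycline with compound; red signal alone, scaled from basal (0%) to zero light (-100%), flagged nonspecific or cytotoxic effects.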

[1] = measured here: control luc red channel
[2] = measured here: IkB-luc green channel

SMILES | AC50 [1] | AC50 [2]
CCOC(=O)c1c(N)n(Cc2ccco2)c2nc3ccccc3nc12 | 20 µM [falling, partial curve, poor fit] | 
Cc1nc(-c2ccc(-c3ccc(C(=O)N4CCc5cc6c(cc54)C4(CCN(C)CC4)CO6)cc3)c(C)c2)no1 | 25.1 µM [falling, partial curve] and 31.6 µM [falling, partial curve] | 25.1 µM [falling, partial curve]
COc1ccc(Cl)cc1NC1=NCC(C)S1 (stereo not given) | 39.8 µM [falling, single point] | 
NNc1c(C(N)=O)c2c(N)ncnc2n1[C@@H]1O[C@H](CO)[C@@H](O)[C@@H]1O | 3.16 µM [falling, partial curve] | 
COc1ccc(NC(=O)c2cccn(Cc3ccc(Cl)cc3)c2=O)c(OC)c1 | 25.1 µM [rising, partial curve, poor fit] | 
CCCn1c(=O)c2[nH]c(C3CCCC3)nc2n(CCCOC(=O)c2ccc(S(=O)(=O)F)cc2)c1=O | 7.94 µM [falling, full curve] | 6.31 µM [falling, full curve]
Cc1nc2cc(C(F)(F)F)ccc2n1C1CCN(Cc2nnnn2Cc2ccc3c(c2)OCO3)CC1 | 10 µM [falling, partial curve] | 20 µM [falling, single point]
COc1cc2c(cc1O)[C@H]1Cc3ccc(OC)c(O)c3CN1CC2 | 15.8 µM [rising, partial curve] | 15.8 µM [rising, partial curve]
Cc1ccccc1-n1c(/C=C/c2ccccc2F)nc2ccccc2c1=O | 25.1 µM [falling, partial curve] | 
COCCOC(=O)C1=C(N)Oc2c(c(=O)oc3ccccc23)C1c1ccncc1 (stereo not given) | 0.158 µM [falling, full curve] | 
O=C(COc1ccccc1[N+](=O)[O-])N1CCN(CCc2ccccn2)CC1 | 20 µM [falling, partial curve] | 
ClC1=C(Cl)C2(Cl)C3C4CC(C5OC45)C3C1(Cl)C2(Cl)Cl (stereo not given) | 3.98 µM [rising, full curve] | 2.51 µM [rising, full curve]
O=C(Nc1ccccc1C(F)(F)F)c1cccn(Cc2ccccc2)c1=O | 39.8 µM [falling, single point] | 
Cc1ccc(-n2c(/C=C/c3cccc4ccccc34)nc3ccccc3c2=O)cc1 | 12.6 µM [falling, partial curve] | 
O=C(Nc1cccnc1)c1c(O)c2c(n(Cc3ccccc3)c1=O)CCCC2 | 15.8 µM [falling, partial curve] | 
CN(C(=O)Cc1ccc(Cl)c(Cl)c1)[C@H](CN1CCCC1)c1cccc(N=C=S)c1 | 39.8 µM [falling, single point] | 
Nc1ccc(Cl)cc1N | 1.58 µM [falling, full curve] | 
N#CSCSC#N | 1.58 µM [rising, full curve] | 1.26 µM [rising, full curve]

SMILES | AC50 [1] | AC50 [2]
O=C(O)[C@@H]1[C@H](C(=O)O)[C@]2(Cl)C(Cl)=C(Cl)[C@@]1(Cl)C2(Cl)Cl |  | 2.51 µM [rising, partial curve]
C[C@@]12CC[C@H](O)C[C@@H]1CC[C@H]1[C@H]2CC[C@@]2(C)[C@@H](C3=CC(=O)OC3)CC[C@]12O | 0.631 µM [falling, full curve] | 
CCOC(=O)c1ccc(NC(=O)CSc2nc3c(cc2C#N)N2CCC3CC2)cc1 | 7.94 µM [falling, single point] | 
COc1cc2cc(c1Cl)N(C)C(=O)C[C@H](OC(=O)C(C)C)[C@]1(C)O[C@@H]1[C@@H](C)[C@H]1C[C@](O)(NC(=O)O1)[C@@H](OC)/C=C\C=C(\C)C2 | 0.00251 µM [rising, full curve] | 0.0158 µM [rising, full curve]
O=C1NC(=O)N(C2CCCCC2)C(=O)C1C1c2ccccc2C(=O)N1Cc1ccccc1 (stereo not given) | 7.94 µM [falling, partial curve] | 
Cc1cccc(-n2c(CC3C(=O)Nc4ccc(C)cc43)nc3ccccc3c2=O)c1 (stereo not given) | 39.8 µM [falling, single point] | 
O=C(c1ccc2c(c1)N(Cc1c(F)cccc1Cl)C(=O)c1ccccc1S2)N1CCC2(CC1)OCCO2 | 12.6 µM [falling, partial curve] | 
Cc1ccc(C)c(CN2C(=O)c3ccccc3Sc3ccc(C(=O)N4CCC5(CC4)OCCO5)cc32)c1 | 20 µM [falling, single point] | 
CN1CC[C@]2(C)c3cc(O)ccc3N(C)[C@@H]12 | 31.6 µM [falling, partial curve] | 31.6 µM [rising, partial curve]
Cc1cccc(CN2C(=O)CN=C(c3ccccc3Cl)c3cc(Cl)ccc32)c1 | 15.8 µM [falling, partial curve] | 
CCOC(=O)c1c(C)n(COCCO)c2ccc(O)cc12 | 3.98 µM [falling, partial curve] | 
C[C@@H]1C[C@@H]([C@H](O)CC2CC(=O)NC(=O)C2)C(=O)[C@@H](C)C1 | 0.631 µM [falling, full curve] | 
Cc1ccc(-n2c(/C=C/c3ccccc3)nc3ccccc3c2=O)cc1C | 10 µM [falling, partial curve] | 
CC(C)(C)c1cc(C=C(C#N)C#N)cc(C(C)(C)C)c1O | 0.501 µM [falling, full curve] | 2 µM [falling, full curve]
CCn1nc(-c2ccccc2)nc2c(=O)n(C)c(=O)nc1-2 | 12.6 µM [falling, partial curve] | 3.16 µM [rising, partial curve]
CC(=O)c1ccc(NC(=O)c2sc3nc4c(cc3c2N)N2CCC4CC2)cc1 | 31.6 µM [falling, single point] | 
CCc1ccc(OCCCN=C(C)c2c(O)n(C)c(=O)n(C)c2=O)cc1 | 10 µM [falling, partial curve] | 
